Test results published in patent US7829114B2, “Capsules containing aqueous fill compositions stabilized with derivatized cyclodextrin” (CyDex Pharmaceuticals, Inc., priority 2002, dated 2010).
For at least one compound, name, drawing or mass did not settle the structure.

Test: Clarity / appearance of fill composition
Assay type: physicochemical
Settings: normal dose of drug in 1 gram
Excerpt: Agitation continued until all the SAE-CD dissolved.
Clarity of the fill compositions herein can be determined by visual inspection; however, other known methods for determining the clarity of a fill composition can be performed. Exemplary other methods include transmittance spectrophotometry at a wavelength of 800 nm.

With CCCC1O[C@@H]2C[C@H]3[C@@H]4CCC5=CC(=O)C=C[C@]5(C)[C@H]4[C@@H](O)C[C@]3(C)[C@]2(C(=O)CO)O1 (some centres unmarked) [Budesonide] the Fill composition appearance (60% w/w SAE-CD) was “suspension” and the Fill composition appearance (70% w/w SAE-CD) was “suspension”.
